# Several values for one entry are separate records, joined by “and”; a condition that tells them apart may be missing. Equal values may be shown once. The list shows a part of the results.
# Tests used:
# Test in all cases: protein microarray (ProtoArray v5.0), streptavidin-Alexa Fluor 647
# Conditions in all cases: 3'-biotin; 20 mM Tris (pH 7.5), 5 mM MgCl2, 100 mM KCl, 0.1% Tween-20, A/T-rich and random oligonucleotide blockers; temperature not stated; high values mean tight binding
# [1] = system: NUBP1 (human)
# [2] = system: NUCB1 (human)
# [3] = system: NUDCD2 (human)
# [4] = system: NUDT1 (human)
# [5] = system: NUDT12 (human)
# [6] = system: NUDT6 (human)
# [7] = system: NUDT9 (human)
# [8] = system: NUMB (human)
# [9] = system: NUP62CL (human)
# [10] = system: NVL (human)
sequence,measurement,setting,value
GGGAGGCTGAGGCAGG [G4-1 biotinylated (PQS2)],binding signal,[1],-0.315 z-score
same,binding signal,[2],-0.336 z-score
same,binding signal,[3],-0.255 z-score
same,binding signal,[4],-0.286 z-score
same,binding signal,[5],-0.285 z-score
same,binding signal,[6],-0.237 z-score
same,binding signal,[7],-0.323 z-score and -0.263 z-score
same,binding signal,[8],-0.345 z-score
same,binding signal,[9],-0.29 z-score
same,binding signal,[10],-0.338 z-score

# Reformatted tab-delimited: entries from further up.
sequence	measurement	setting	value
GGGAGGCTGAGGCAGG [G4-1 biotinylated (PQS2)]	binding signal	[6]	-0.237 z-score
same	binding signal	[7]	-0.323 z-score and -0.263 z-score
